In all, about 33,000 sequences were measured (“E-score (-0.5 to 0.5)”: median about -0.016, highest 2% from about 0.3 on). The list shows a part of the results.
target: T1, Yer184c (UniProt P39961); assay: PBM E-score (8-mer binding enrichment) (E-score (-0.5 to 0.5)); higher = stronger / more preferred TF binding; conditions: protein concentration: 100 nM; construct: GST-full length
T1 sequence: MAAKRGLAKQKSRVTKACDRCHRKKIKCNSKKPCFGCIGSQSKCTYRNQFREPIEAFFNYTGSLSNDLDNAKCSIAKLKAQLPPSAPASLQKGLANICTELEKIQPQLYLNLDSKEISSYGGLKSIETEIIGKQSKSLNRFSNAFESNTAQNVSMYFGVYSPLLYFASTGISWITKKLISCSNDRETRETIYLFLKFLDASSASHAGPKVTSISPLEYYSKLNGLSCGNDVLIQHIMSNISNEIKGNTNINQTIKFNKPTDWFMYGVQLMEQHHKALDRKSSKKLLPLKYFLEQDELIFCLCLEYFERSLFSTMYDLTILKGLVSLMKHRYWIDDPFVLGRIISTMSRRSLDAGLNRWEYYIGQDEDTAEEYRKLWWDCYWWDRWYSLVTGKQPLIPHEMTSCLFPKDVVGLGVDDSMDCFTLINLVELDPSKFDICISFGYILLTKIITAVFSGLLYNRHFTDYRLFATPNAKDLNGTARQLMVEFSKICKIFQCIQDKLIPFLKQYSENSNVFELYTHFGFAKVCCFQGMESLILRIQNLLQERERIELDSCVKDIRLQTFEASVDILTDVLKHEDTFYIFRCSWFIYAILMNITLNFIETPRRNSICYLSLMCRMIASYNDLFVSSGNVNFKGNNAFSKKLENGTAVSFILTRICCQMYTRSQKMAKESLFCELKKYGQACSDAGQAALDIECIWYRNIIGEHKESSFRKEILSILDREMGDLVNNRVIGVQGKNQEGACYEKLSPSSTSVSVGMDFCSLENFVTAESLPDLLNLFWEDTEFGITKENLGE
Summary of the method: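 GST-tagged yeast TFs (full-length or DNA-binding domain) were made by PURExpress in vitro transcription/translation and applied at about 100-200 nM to universal all-10-mer Agilent arrays. The arrays were made double-stranded by primer extension, on fresh or once-stripped slides. Bound protein was detected with fluorescent anti-GST, and scans were normalised with masliner. Each ungapped eight-base word, pooled with its reverse complement, received an E-score (modified Wilcoxon-Mann-Whitney statistic) from the Universal PBM Analysis Suite.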

Sequence | PBM E-score
ACGAACAC | 0.22
AGTGGCTA | -0.0424
GAGATTCA | -0.0108
TGGAAACA | -0.0604
AGGCCTTA | -0.231
TATTATCA | 0.159
CAATGACG | -0.0656
ATGTAAGC | -0.0898
AAGATCTT | 0.031
CTCTGCAG | -0.0973
CGGCGTCA | -0.0269
CTTTTTAA | 0.0456
CCCTTGAC | -0.203
CAGGACTA | -0.0635
CGATTTCA | -0.0128
CAACTATG | 0.0212
CTCGTTTA | 0.0119
CGTTTCCA | 0.0491
CCAGCCGA | 0.205
ACTATCAA | 0.192
CGGAACTC | 0.202
ACAAGCGG | 0.0922
ACCGTAAT | -0.0105
GATGTCAC | 0.0784
AATAGACC | 0.113

Sequence | PBM E-score
ATCATGAC | 0.024
ATGAGAAC | 0.0724
CAGCGTAC | -0.147
CTCCTTTC | -0.22
AAGCTTTA | 0.0442
GACCCAAC | -0.144
ACCGTGTC | 0.069
CCAAGGCA | -0.126
ACACTTCC | 0.0751
AATGTCGC | -0.114
GGGTCGAC | -0.0694
CTCCGGCA | 0.359
ATTTCTCA | 0.099
TCAAATAA | 0.197
ATGGGTTC | -0.159
AGGGTATA | 0.00268
ACTGTAGA | 0.00065
CGGGGTAC | -0.0331
CAGGTCGC | -0.232
GCCTATCA | -0.113
ATGTGATC | 0.15
CGTATAAA | 0.311
GGTCGCAA | 0.0718
GCGGGGGA | -0.255
ATCACTTG | -0.155

5 records picked at random from the list so far:
Sequence | PBM E-score
GCCTATCA | -0.113
GGGTCGAC | -0.0694
AGGGTATA | 0.00268
ATGTGATC | 0.15
CTCCGGCA | 0.359

Further entries follow.

Sequence | PBM E-score
CCATCACC | -0.211
ATATAGGA | -0.0864
ACTCAGTA | 0.0602
GACTCAGC | -0.222
CCACAAGC | -0.273
CAACGCCG | 0.294
CCGTGTAA | 0.0462
CTACTCAA | 0.113
AAGGCACC | -0.146
GCGGGGCA | -0.0118
CAGCTTTC | -0.151
AACAGAAG | 0.0218
TAAGGCCA | -0.113
GCGGTGAC | -0.129
CTACGCGC | 0.0464
GCGATTGA | -0.114
ACAGTTCT | -0.0571
CGAGCAAG | -0.14
TCTGCGAA | -0.186
ACGTGTCA | -0.0719
ACCTCGGG | 0.00401
GAGGGTAA | -0.122
ACTCAATG | -0.0468
ACGATTCT | -0.0237
GTTTTATA | 0.141

Single entries from the results shown.
For PBM E-score, CAACGCCG has the entry 0.294
For PBM E-score, ACGATTCT has the entry -0.0237
For PBM E-score, GTTTTATA has the entry 0.141

Remaining list, next part

Sequence | PBM E-score
ACAAAACC | 0.129
GACAGATC | 0.0707
AACTCCCT | -0.179
CATTTATC | -0.0411
GCATCTAC | 0.013
CTGCTCTC | -0.13
GACGACCC | -0.102
CGCCGTAC | 0.0234
ACTCCGAG | 0.233
AACTCAAG | 0.16
ACTTGGCG | -0.15
GCGACCCC | -0.265
AGTTGGTA | 0.042
CGAAAGCG | -0.221
AATGGAAC | 0.176
AAGAATAG | 0.0736
ACCAGAGC | -0.0444
GGGACATA | -0.048
ATCTCATG | -0.0834
CCTTGTCG | -0.108
AGGGCTCC | -0.297
GCAAAGAC | -0.0156
AACAGACG | -0.0417
AAACTTCG | 0.0643
ACATCGGC | 0.146

Sequence | PBM E-score
GCATTCAC | 0.189
ACAATAGT | -0.0128
AAGAATAA | 0.0383
GTCGTATA | 0.109
AAGGAGCT | -0.237
CTACATGC | -0.0715
ACTTGGAA | -0.017
CCAGACGA | -0.0476
ATCTGGCA | 0.141
ACGGCAAG | 0.0759
AATGCCAC | -0.209
GTTGATCA | 0.13
CCAAAAGG | -0.136
GAATAGAC | 0.0134
GTGGGTGA | -0.0808
ACTGATGA | -0.0434
GAAACCGA | 0.146
CCTCAATC | 0.102
ACATAATA | 0.17
AATCTAGG | 0.0186
ACAGTGTG | -0.137
AGCGTGTA | -0.0339
CCAGCAGA | -0.0266
CTGCAAGC | -0.072
CATCGGAG | 0.00534

Sequence | PBM E-score
CTGATCAA | -0.0456
CAGATCTG | 0.00364
AATTAAGT | 0.221
CGACAAAC | 0.0595
AATTCAGA | 0.118
CGTCGTAC | -0.124
ACTGGAGC | -0.23
GGCACGAA | 0.0418
CAAAAGCG | 0.0788
GGAATTCA | 0.133
ACAAAACT | 0.144
CACGGGGG | -0.231
TGACCTCA | -0.0893
CTTGGCAA | -0.107
CAATGCTG | -0.1
GGAGTACA | -0.0518
CCGTTCTC | 0.0111
AGAGGGTA | -0.278
AACTGCTG | -0.0635
AAATAGGA | 0.142
CGCAGCCG | 0.0498
GATAATTA | 0.318
CACTGACG | -0.14
CGCTCAAA | -0.0389
TAAGCGGA | 0.105

Sequence | PBM E-score
CGTTAGCC | 0.0792
ACGCCACT | -0.069
CAGAACTA | -0.00112
CCCAACCC | -0.249
AGCTACCG | -0.108
AGTGTACG | -0.0983
ATCCAATA | 0.105
CGCTGACG | -0.314
TATGTGCA | -0.0853
TATAAACA | 0.272
GTCTGCCA | -0.095
ACTGGCCA | -0.212
GTCTCCGA | 0.243
AAATTAAA | 0.285
ACGAAACA | 0.154
AATCTGCC | 0.0339
GCATCAGA | 0.1
GTACCCTA | -0.204
AACGTCTT | -0.0983
GTCACAAA | 0.186
AATTCTCT | -0.183
CCCCGGAG | 0.135
